The record followed here is article PMC9772344.

Chains of the proteins cited; added tags and fusions are not shown. Lines headed by an entry give the natural chain unless they say otherwise; changes in a name come on top. Residues count along the entry.
UniProt P43006: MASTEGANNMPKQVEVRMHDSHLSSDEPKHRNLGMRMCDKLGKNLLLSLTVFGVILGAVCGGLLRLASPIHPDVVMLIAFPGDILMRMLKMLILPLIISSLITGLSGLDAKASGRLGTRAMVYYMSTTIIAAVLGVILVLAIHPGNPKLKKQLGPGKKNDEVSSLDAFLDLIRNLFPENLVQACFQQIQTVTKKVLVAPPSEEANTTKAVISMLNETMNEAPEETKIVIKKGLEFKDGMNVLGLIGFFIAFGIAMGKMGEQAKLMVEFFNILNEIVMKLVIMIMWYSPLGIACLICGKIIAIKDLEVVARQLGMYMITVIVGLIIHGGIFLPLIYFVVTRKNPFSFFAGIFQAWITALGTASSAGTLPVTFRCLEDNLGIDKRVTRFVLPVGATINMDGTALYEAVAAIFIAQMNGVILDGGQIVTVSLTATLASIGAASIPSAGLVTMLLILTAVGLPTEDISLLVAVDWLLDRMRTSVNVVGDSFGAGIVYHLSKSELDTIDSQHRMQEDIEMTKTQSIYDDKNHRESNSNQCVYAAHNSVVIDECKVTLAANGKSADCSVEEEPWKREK
UniProt Q13586, residues 23-685: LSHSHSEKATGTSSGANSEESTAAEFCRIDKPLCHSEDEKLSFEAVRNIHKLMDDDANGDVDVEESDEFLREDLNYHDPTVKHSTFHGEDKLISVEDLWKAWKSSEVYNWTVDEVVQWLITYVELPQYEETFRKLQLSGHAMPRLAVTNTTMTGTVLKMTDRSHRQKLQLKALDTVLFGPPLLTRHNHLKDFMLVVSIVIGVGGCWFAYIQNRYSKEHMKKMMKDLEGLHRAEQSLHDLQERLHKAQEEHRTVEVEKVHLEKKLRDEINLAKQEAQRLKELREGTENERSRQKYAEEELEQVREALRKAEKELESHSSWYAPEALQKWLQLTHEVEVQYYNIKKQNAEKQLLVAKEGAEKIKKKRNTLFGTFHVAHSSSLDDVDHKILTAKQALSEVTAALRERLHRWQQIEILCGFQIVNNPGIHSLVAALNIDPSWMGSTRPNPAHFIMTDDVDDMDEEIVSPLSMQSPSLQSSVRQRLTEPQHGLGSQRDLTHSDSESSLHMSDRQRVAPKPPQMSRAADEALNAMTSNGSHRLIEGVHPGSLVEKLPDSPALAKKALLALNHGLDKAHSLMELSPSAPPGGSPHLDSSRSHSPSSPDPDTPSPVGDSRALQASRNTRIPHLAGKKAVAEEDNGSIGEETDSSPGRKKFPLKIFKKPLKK
UniProt Q96D31: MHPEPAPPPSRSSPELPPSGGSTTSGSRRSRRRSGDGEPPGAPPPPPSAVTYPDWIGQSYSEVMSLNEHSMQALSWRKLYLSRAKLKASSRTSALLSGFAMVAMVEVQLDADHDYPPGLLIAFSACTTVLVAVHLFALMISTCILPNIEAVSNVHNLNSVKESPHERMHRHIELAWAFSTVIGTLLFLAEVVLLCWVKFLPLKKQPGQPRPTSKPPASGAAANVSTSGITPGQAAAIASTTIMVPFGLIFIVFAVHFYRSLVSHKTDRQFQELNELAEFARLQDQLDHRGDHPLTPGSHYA

No constants are given. Whether binding was seen depends on the method and setting. In cells and extracts the contact can be indirect. Binding can be weak; no strength is given.

The target of assay [1] is GLT-1 G82R (UniProt P43006). The assay can be described thus: co-IP; anti-GLT-1 as the capture antibody (2 ug antibody on 2 mg protein sample, 4 °C, 24 h, protein A/G beads); lysates of cells transfected with SK, WT or mutant GLT-1 plasmids; Western blot for STIM1 and Orai1.
Assay [2] addresses GLT-1 L85P (UniProt P43006). The assay is described as above.
In assay [3] the target is GLT-1 P289R (UniProt P43006). The assay is described as above.
The target in assay [4] is stromal-interacting molecule 1 (STIM1) (human (endogenous in HeLa)) (UniProt Q13586). The assay can be described thus: co-IP; anti-STIM1 as the capture antibody (2 ug antibody on 2 mg protein sample, 4 °C, 24 h, protein A/G beads); lysates of cells transfected with SK, WT or mutant GLT-1 plasmids; Western blot for GLT-1 and Orai1. (In western blotting, separated proteins are transferred to a membrane and probed.)

Take Orai1 (from UniProt Q96D31 1-301): the binding entry in assay [1], in assay [2] and in assay [3] was “binds” in each case.

On to GLT-1 P289R (from UniProt P43006), for which the binding result in assay [4] is on record as “binds”.

Turning to GLT-1 G82R (from UniProt P43006), the binding entry in assay [4] is given as “binds”.

In the case of GLT-1 L85P (from UniProt P43006), the binding entry in assay [4] is “binds”.

For “stromal-interacting molecule 1 (STIM1) (from UniProt Q13586 23-685)”, the binding entry in assay [1], in assay [2] and in assay [3] was “binds” each time.
